# Library screen at single concentrations

By UniProt entry, the sequences of proteins in these tests, tags left out. Residues count along the entry.
UniProt A4I591, 1-473: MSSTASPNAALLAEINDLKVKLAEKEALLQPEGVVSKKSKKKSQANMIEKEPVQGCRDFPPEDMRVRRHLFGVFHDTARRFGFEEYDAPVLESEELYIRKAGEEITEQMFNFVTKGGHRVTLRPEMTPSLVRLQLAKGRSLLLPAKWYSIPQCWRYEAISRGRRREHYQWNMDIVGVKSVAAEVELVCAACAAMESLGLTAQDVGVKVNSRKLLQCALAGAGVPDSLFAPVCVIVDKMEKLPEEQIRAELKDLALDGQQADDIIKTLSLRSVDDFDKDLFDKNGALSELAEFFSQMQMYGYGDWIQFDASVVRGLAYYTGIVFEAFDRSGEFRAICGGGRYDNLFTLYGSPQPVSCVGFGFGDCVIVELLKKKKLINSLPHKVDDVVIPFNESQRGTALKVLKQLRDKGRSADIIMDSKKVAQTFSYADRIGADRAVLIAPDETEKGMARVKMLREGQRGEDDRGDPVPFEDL
UniProt P9WFT3, whole entry: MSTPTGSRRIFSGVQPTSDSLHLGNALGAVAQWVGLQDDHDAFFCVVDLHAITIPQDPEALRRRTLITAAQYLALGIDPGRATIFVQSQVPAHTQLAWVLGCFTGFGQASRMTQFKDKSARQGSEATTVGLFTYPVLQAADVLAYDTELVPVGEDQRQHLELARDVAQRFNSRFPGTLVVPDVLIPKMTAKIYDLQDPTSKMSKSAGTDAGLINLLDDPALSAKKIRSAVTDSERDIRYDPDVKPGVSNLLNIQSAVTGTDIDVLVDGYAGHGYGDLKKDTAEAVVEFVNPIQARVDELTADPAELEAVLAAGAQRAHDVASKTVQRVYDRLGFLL

Values are the deposited “Percent Effect”, in %. The record does not define 0% and 100%; most values in the screen are far below 50% and negative numbers occur (in some assays of this library far below -100). Compounds were drawn at random from those tested, without regard to their results. A dash means the value is not listed here; it may have been measured.

LiHisRS: 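Histidine-tRNA ligase, Leishmania infantum (UniProt A4I591). Enzyme assay of histidyl-tRNA synthetase; the read-out is not stated. Compounds at 30 µM. The record gives no direction; compounds that gave an IC50 in retests scored well above the rest, so higher reads as stronger inhibition. The assay is labelled LdHisRS but filed under L. infantum. Size under these conditions: about 69,000 compounds, about 410 of them at 50% or above in at least one test.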
MtTrpRS: 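Tryptophan-tRNA ligase, Mycobacterium tuberculosis (UniProt P9WFT3). Enzyme assay of tryptophanyl-tRNA synthetase; the read-out is not stated. Concentration: 10 µM. Higher most likely means stronger inhibition; the record gives no direction and few retests gave an IC50. Of about 65,000 compounds tested this way, about 64 (0.098%) reached 50% or more in at least one test.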

| SMILES | LiHisRS | MtTrpRS |
|---|---|---|
| `COCCO[C@H]1CCN(C(=O)c2ccsc2)[C@H]1Cc1ccncc1` | 13 | -2.35 |
| `CSc1ccccc1C(=O)N1C[C@H]2CC[C@@H]1CN(C(=O)N(C)C)C2` | 8.065 | -1.502 |
| `COCc1nc(C(=O)NS(=O)(=O)c2ccc(C)s2)cs1` | 8.511 | -2.598 |
| `N#Cc1cn(C2CC2)c(=O)n(Cc2noc(-c3ccsc3)n2)c1=O` | 13.7 | 0.7802 |
| `Cc1cnccc1NCCn1ccnc1C1CCCCC1` | 25.37 | 4.641 |
| `Cn1cnc(S(=O)(=O)NCC2(O)CCc3ccccc32)c1` (stereo not given) | -7.692 | 7.89 |
| `N#Cc1ccc(CNC(=O)NCCC(=O)NC2CCCC2)c(F)c1` | 1.333 | -7.869 |
| `CN(C)Cc1cnc(C2CCN(C(=O)c3cccc(F)c3)C2)[nH]1` (stereo not given) | -2.817 | 16.75 |
| `CNS(=O)(=O)c1cccc(C(C)NCc2cccc(OC)c2)c1` (stereo not given) | -3.846 | 2.064 |
| `Cc1cccc(N2CCOC(C(=O)O)C2)c1` (stereo not given) | 17.24 | -5.176 |
| `O=C(CCC1CCCO1)NCc1ccc(Br)cc1F` (stereo not given) | 16.96 | 8.259 |
| `CCn1ccnc1CN1CCCN(C(=O)Cc2ccccc2C)CC1` | 0 | 1.193 |
| `O=C(O)c1cncc(Cc2ccccc2F)c1` | 9.929 | 0.5465 |
| `Cc1cnn(CC2CCCCN2C(=O)Cc2cccc(F)c2)c1` (stereo not given) | 7.826 | -2.3 |
| `N#Cc1cccc(C(=O)NS(=O)(=O)c2ccc(C#N)c(Cl)c2)c1` | -3.03 | 8.545 |
| `Cc1ccc(N2CCCC(N(C)c3ncnc4c3CCC4)C2)nn1` (stereo not given) | 19.35 | -4.62 |
| `CCc1nc(C2CCCN2C(=O)CCc2nc(C3CC3)no2)no1` (stereo not given) | 0.8929 | -4.182 |
| `Cc1csc(N2CCN(C(=O)C3(C#N)CCCC3)CC2)n1` | 17.86 | -7.972 |
| `COc1cccc(C2CCCN2Cc2nnnn2C2CC2)c1` (stereo not given) | 6.173 | -0.6365 |
| `CC1CCN(CC2(O)CCCN(Cc3cccc(F)c3F)C2=O)CC1` (stereo not given) | 0 | -5.045 |
| `O=C(C1CCOCC1)N1CCO[C@H]2[C@H](OCC3CC3)CC[C@@H]21` | 20.51 | 4.703 |
| `NC(=O)CN1CCCN(C(=O)Cc2ccc(F)cc2)CC1` | 10.34 | 4.47 |
| `Cc1ccc2cccc(S(=O)(=O)N(C)CC3CCN(C)CC3)c2n1` | 18.68 | 0.1942 |
| `CN(CCc1ccccc1)Cc1nc(Cc2cccc(F)c2)no1` | 11.48 | -4.409 |
| `CC1CN(CCc2ccccn2)CCN1c1ccc2nncn2n1` (stereo not given) | 17.31 | 3.916 |
| `COc1cc(N2CC[C@@H]3O[C@@H](c4ccnc(C)n4)C[C@H]3C2)ncn1` | 17.95 | 6.7 |
| `CC(C)C(C)NC(=O)c1cc(Br)c2c(c1)OCCO2` (stereo not given) | 12.07 | -0.6555 |
| `CCN(CC)S(=O)(=O)N(C)Cc1ccc2c(c1)OCCO2` | 17.31 | -4.351 |
| `Cc1ccc(F)c(S(=O)(=O)NCc2[nH]ncc2Br)c1` | 16.44 | -0.2601 |
| `O=C1CN(c2ccc(CNC(=O)c3ccc[nH]3)cc2F)CCN1` | 4.839 | 0.7048 |
| `c1ccc(N2CCN(Cc3cnc(C4CCCCO4)nc3)CC2)nc1` (stereo not given) | 1.418 | -4.918 |
| `OCCn1nccc1C1CCN(CCCOc2ccc(F)cc2)CC1` | -40.91 | -4.971 |
| `CC(CCc1ccccc1F)C(=O)NS(=O)(=O)CC1CC1` (stereo not given) | 3.896 | -1.012 |
| `COc1c(CNCc2ccc(C(=O)NC3CC3)cc2)c(C)nn1C` | 16.22 | -2.242 |
| `CNc1ncc(C(=O)N2CCCC(CO)(CCCOC)C2)cn1` (stereo not given) | 4.444 | 4.139 |
| `CCN1CCC2(CC1)OCCN2C(=O)c1ccc(OC)c(Cl)c1` | -1.087 | 0.311 |
| `COc1cc2c(c(OC)c1OC)CCN(CCN1CCCCC1)CC2` | 14.29 | 4.699 |
| `CSc1ncccc1C(=O)NCCC(O)c1ccco1` (stereo not given) | 8.696 | -4.939 |
| `CC(C)n1cnnc1CN(C)C(=O)CCn1cnc2ccccc2c1=O` | 12.64 | 2.202 |
| `COC(C)(CNS(=O)(=O)c1cnn(C)c1)c1ccccc1F` (stereo not given) | 7.792 | 1.36 |
| `Cn1c(Cn2ncc(N3CCCC3)cc2=O)nc2ccccc21` | 15.38 | 0.4699 |
| `CN(CCNC(=O)N1CCN(Cc2ccon2)CC1)c1ccccc1` | 8.738 | 5.329 |
| `N#Cc1cccnc1OC1CCN(S(=O)(=O)c2ccc(Br)cc2)CC1` | -139 | 5.048 |
| `CC(C)COc1cncc(NCCc2nnc3ccccn23)n1` | 13.33 | -2.462 |
| `COc1ccc(-n2cnnc2SCC(=O)NC(C)C)cn1` | 15.18 | 2.679 |
| `CC(C)n1ccnc1C1CCCN(c2ccccn2)C1` (stereo not given) | 20.39 | -3.197 |
| `Cc1nc(CNCc2cccc(OC34CCCN(CC3)C4)c2)n[nH]1` (stereo not given) | 24.71 | 5.148 |
| `CC(NS(C)(=O)=O)C(=O)N(C)Cc1cnn(-c2ccc(F)cc2)c1` (stereo not given) | 11.43 | -2.562 |
| `CC(C)c1noc(C(C)Nc2nccc(CCC(F)(F)F)n2)n1` (stereo not given) | 10.84 | 1.36 |
| `CCC[C@H]1CN(Cc2ccc(N(C)C)nc2)C[C@@H]1NC(=O)CCOC` | 5.128 | -5.782 |
| `CCOC(=O)N1CCN(CC(=O)Nc2nnc(CC)s2)CC1` | 2.083 | 10.59 |
| `CC(=O)N1CCCC1c1nc(C)c2c(n1)N(Cc1ccccn1)CCC2` (stereo not given) | 11.35 | 2.171 |
| `NC1(c2nc(-c3ccccc3)cc(=O)[nH]2)CCCCC1` | 11.67 | -2.621 |
| `COCC(=O)N1CCC2(CC1)CC(=O)N(Cc1ccc(Cl)cc1)C2` | 17.5 | 0.8683 |
| `CN(C)C(=O)CN1CCc2onc(-c3ccccc3F)c2C1` | 18.07 | -3.535 |
| `CCc1cc(C(=O)N2CCCC(Cc3ccc(NC)nn3)C2)on1` (stereo not given) | 13.04 | - |
| `NC(=O)CN1CCC2(CC1)CC(=O)c1ccc3ccccc3c1O2` | 9.901 | - |
| `CC(C)NC(=O)N1C[C@H]2C[C@H](C(=O)N3CCCC3)[C@@H](C1)O2` | 0 | -0.8994 |
| `Cc1ccccc1OCCC(=O)N1CCCC(n2cncn2)C1` (stereo not given) | 12.77 | 2.153 |
| `COCc1c(Br)cccc1NC(=O)N(C)CCO` | 13.95 | 2.381 |

Source: ChEMBL document CHEMBL3988442, “University of Dundee, Small-Polar-MMV Screening Library” (2021).